This is one part of the list.
Assays:
Experiment in all cases: glycan array binding signal (z-score within array); higher = stronger binding
Settings in all cases: glycan notation: IUPAC condensed, linker removed
[1] = target: GlcNAc(b1-3)Gal(b1-4)GlcNAc(b1-3)Gal(b1-4)GlcNAc(b1-3)GalNAc
Procedure, shortened: (§1)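 The Consortium for Functional Glycomics database supplied 3228 glycan arrays, of which those lacking an available protein sequence were dropped. The binding signal, a within-array Z-score, was averaged across arrays of the same protein sequence and across linkers. Negative scores can be read as non-binding.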

[2] = target: GlcNAc(b1-3)Gal(b1-4)GlcNAc(b1-3)GalNAc
Procedure, shortened: as §1

[3] = target: GlcNAc(b1-3)Gal(b1-4)GlcNAc(b1-3)[GlcNAc(b1-3)Gal(b1-4)GlcNAc(b1-3)]GalNAc
Procedure, shortened: as §1

[4] = target: GlcNAc(b1-3)Gal(b1-4)GlcNAc(b1-6)[Gal(b1-3)]GalNAc
Procedure, shortened: as §1

[5] = target: GlcNAc(b1-3)Gal(b1-4)GlcNAc(b1-6)[GlcNAc(b1-3)Gal(b1-3)]GalNAc
Procedure, shortened: as §1

[6] = target: GlcNAc(b1-3)Gal(b1-4)GlcNAc(b1-6)[GlcNAc(b1-3)]Gal(b1-4)GlcNAc
Procedure, shortened: as §1

GlcNAc(b1-3)GalNAc = target: GlcNAc(b1-3)GalNAc
Procedure, shortened: as §1

GlcNAc(b1-3)Man = target: GlcNAc(b1-3)Man
Procedure, shortened: as §1

[7] = target: GlcNAc(b1-3)[GlcNAc(b1-4)][GlcNAc(b1-6)]GlcNAc
Procedure, shortened: as §1

[8] = target: GlcNAc(b1-3)[GlcNAc(b1-6)]Gal(b1-4)GlcNAc
Procedure, shortened: as §1

[9] = target: GlcNAc(b1-3)[GlcNAc(b1-6)]GalNAc
Procedure, shortened: as §1

[10] = target: GlcNAc(b1-4)Gal(b1-4)GlcNAc
Procedure, shortened: as §1

GlcNAc(b1-4)GlcNAc = target: GlcNAc(b1-4)GlcNAc
Procedure, shortened: as §1

[11] = target: GlcNAc(b1-4)GlcNAc(b1-4)GlcNAc
Procedure, shortened: as §1

[12] = target: GlcNAc(b1-4)GlcNAc(b1-4)GlcNAc(b1-4)GlcNAc(b1-4)GlcNAc
Procedure, shortened: as §1

[13] = target: GlcNAc(b1-4)GlcNAc(b1-4)GlcNAc(b1-4)GlcNAc(b1-4)GlcNAc(b1-4)GlcNAc
Procedure, shortened: as §1

[14] = target: GlcNAc(b1-4)[GlcNAc(b1-6)]GalNAc
Procedure, shortened: as §1

[15] = target: GlcNAc(b1-6)Gal(b1-4)GlcNAc
Procedure, shortened: as §1

GlcNAc(b1-6)GalNAc = target: GlcNAc(b1-6)GalNAc
Procedure, shortened: as §1

[16] = target: GlcNAc6S(b1-3)Gal(b1-4)GlcNAc
Procedure, shortened: as §1

Kdn(a2-3)Gal(b1-3)GalNAc = target: Kdn(a2-3)Gal(b1-3)GalNAc
Procedure, shortened: as §1

Kdn(a2-3)Gal(b1-3)GlcNAc = target: Kdn(a2-3)Gal(b1-3)GlcNAc
Procedure, shortened: as §1

Kdn(a2-3)Gal(b1-4)Glc = target: Kdn(a2-3)Gal(b1-4)Glc
Procedure, shortened: as §1

Kdn(a2-3)Gal(b1-4)GlcNAc = target: Kdn(a2-3)Gal(b1-4)GlcNAc
Procedure, shortened: as §1

[17] = target: Kdn(a2-3)Gal(b1-4)[Fuc(a1-3)]GlcNAc
Procedure, shortened: as §1

Kdn(a2-6)Gal(b1-4)GlcNAc = target: Kdn(a2-6)Gal(b1-4)GlcNAc
Procedure, shortened: as §1

[18] = target: Man(a1-2)Man(a1-2)Man(a1-3)Man
Procedure, shortened: as §1

[19] = target: Man(a1-2)Man(a1-2)Man(a1-6)[Man(a1-3)]Man
Procedure, shortened: as §1

Man(a1-2)Man(a1-3)Man = target: Man(a1-2)Man(a1-3)Man
Procedure, shortened: as §1

[20] = target: Man(a1-2)Man(a1-3)[Man(a1-2)Man(a1-6)]Man
Procedure, shortened: as §1

[21] = target: Man(a1-2)Man(a1-3)[Man(a1-2)Man(a1-6)]Man(a1-6)[Man(a1-2)Man(a1-2)Man(a1-3)]Man
Procedure, shortened: as §1

[22] = target: Man(a1-2)Man(a1-3)[Man(a1-2)Man(a1-6)]Man(a1-6)[Man(a1-2)Man(a1-2)Man(a1-3)]Man(b1-4)GlcNAc(b1-4)GlcNAc
Procedure, shortened: as §1

[23] = target: Man(a1-2)Man(a1-3)[Man(a1-6)]Man(a1-6)[Man(a1-2)Man(a1-3)]Man(b1-4)GlcNAc(b1-4)GlcNAc
Procedure, shortened: as §1

[24] = target: Man(a1-2)Man(a1-6)[Man(a1-3)]Man(a1-6)[Man(a1-2)Man(a1-2)Man(a1-3)]Man
Procedure, shortened: as §1

[25] = target: Man(a1-2)Man(a1-6)[Man(a1-3)]Man(a1-6)[Man(a1-2)Man(a1-2)Man(a1-3)]Man(b1-4)GlcNAc(b1-4)GlcNAc
Procedure, shortened: as §1

Man(a1-3)[Man(a1-6)]Man = target: Man(a1-3)[Man(a1-6)]Man
Procedure, shortened: as §1

[26] = target: Man(a1-3)[Man(a1-6)]Man(a1-6)[Man(a1-2)Man(a1-3)]Man(b1-4)GlcNAc(b1-4)GlcNAc
Procedure, shortened: as §1

B1: Thrombomodulin Lectin (Mus musculus) (protein)
chain: LSALAKLQPTGSQCVEHECFALFQGPATFLDASQACQRLQGHLMTVRSSVAADVISLLLSQSSMDLGPWIGLQLPQGCDDPVHLGPLRGFQWVTGDNHTSYSRWARPNDQTAPLCGPLCVTVSTATEAAPGEPAWEEKPCETETQGFLCEFYFTASCRVDPIPVREDTKEEEGAGEPPVSPTPGSPTGPPSARPVLDEPRVPITQNPCPPLKECPPCAAPDLEGGPSVFIFPPKIKDVLMISLSPMVTCVVVDVSEDDPDVQISWFVNNVEVHTAQTQTHREDYNSTLRVVSALPIQHQDWMSGKAFACAVNNRALPSPIEKTISKPRGPVRAPQVYVLPPPAEEMTKKEFSLTCMITGFLPAEIAVDWTSNGRTEQNYKNTATVLDSDGSYFMYSKLRVQKSTWERGSLFACSVVHEGLHNHLTTKTISRSLGK
- glycan array binding signal (z-score) [1]: -1.15
- glycan array binding signal (z-score) [2]: -0.277
- glycan array binding signal (z-score) [3]: -0.321
- glycan array binding signal (z-score) [4]: -0.352
- glycan array binding signal (z-score) [5]: -0.747
- glycan array binding signal (z-score) [6]: -1.69
- glycan array binding signal (z-score) (GlcNAc(b1-3)GalNAc): -0.097
- glycan array binding signal (z-score) (GlcNAc(b1-3)Man): 0.801
- glycan array binding signal (z-score) [7]: -0.082
- glycan array binding signal (z-score) [8]: -0.514
- glycan array binding signal (z-score) [9]: 0.102
- glycan array binding signal (z-score) [10]: 0.143
- glycan array binding signal (z-score) (GlcNAc(b1-4)GlcNAc): 0.431
- glycan array binding signal (z-score) [11]: 0.52
- glycan array binding signal (z-score) [12]: -1.3
- glycan array binding signal (z-score) [13]: 1.17
- glycan array binding signal (z-score) [14]: 1.02
- glycan array binding signal (z-score) [15]: -1.01
- glycan array binding signal (z-score) (GlcNAc(b1-6)GalNAc): 0.148
- glycan array binding signal (z-score) [16]: 0.319
- glycan array binding signal (z-score) (Kdn(a2-3)Gal(b1-3)GalNAc): 1.18
- glycan array binding signal (z-score) (Kdn(a2-3)Gal(b1-3)GlcNAc): -0.266
- glycan array binding signal (z-score) (Kdn(a2-3)Gal(b1-4)Glc): -0.284
- glycan array binding signal (z-score) (Kdn(a2-3)Gal(b1-4)GlcNAc): 1.38
- glycan array binding signal (z-score) [17]: 1.5
- glycan array binding signal (z-score) (Kdn(a2-6)Gal(b1-4)GlcNAc): -1.59
- glycan array binding signal (z-score) [18]: -0.544
- glycan array binding signal (z-score) [19]: 0.378
- glycan array binding signal (z-score) (Man(a1-2)Man(a1-3)Man): -0.807
- glycan array binding signal (z-score) [20]: -0.79
- glycan array binding signal (z-score) [21]: -1.07
- glycan array binding signal (z-score) [22]: 0.651
- glycan array binding signal (z-score) [23]: -0.304
- glycan array binding signal (z-score) [24]: 0.767
- glycan array binding signal (z-score) [25]: 0.137
- glycan array binding signal (z-score) (Man(a1-3)[Man(a1-6)]Man): 1.85
- glycan array binding signal (z-score) [26]: -0.589

— the supplement of paper PMC8728848
